PubChem BioAssay AID743454, Peter MacCallum Cancer Centre, 2014

Screen: 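Search for knock-downs that restore vorinostat killing in resistant colon cancer cells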 (primary screen)
Cell system: human HCT116-VR colon cancer cells, selected for vorinostat resistance
Knock-down reagent: siRNA pool against human genes, 40 nM siRNA pool
Time to read-out: vorinostat for 24 h, read-out about 72 h after transfection
Challenge: vorinostat at 2.5 µM final
Detection: 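Two measures, CellTiter-Fluor viability and luminescent caspase 3/7 activity, each as fold change against same-plate mock wells, mean of duplicates, then screen-wide robust z-score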
Reading the numbers: viability robust z-score: higher = more viable cells than screen typical; caspase robust z-score: higher = more caspase 3/7 activity than screen typical
Rule for the call: 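Hits are knock-downs in viability class RV1/RV2 or caspase class CA1/CA2, excluding ones that killed cells in the no-drug cell-count arm; hits then retested with single siRNAs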
The deposit covers about 18,000 reagents; this is a part drawn at random. 450 of all reagents (2.5%) count as active. 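Single biological run; no consistent viability z cut-off exists, so the class columns, not z-scores, define the calls.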

no.	target	viability hit class	caspase hit class	viability robust z-score	caspase robust z-score	outcome
1	PIR	no change	no change	-2.49	4.31	inactive
2	ZFYVE28	no change	no change	-0.17	0.62	inactive
3	CERS1	no change	no change	-0.03	0.02	inactive
4	CYB5R1	no change	no change	1.07	0.18	inactive
5	SPSB3	RV2 (reduced viability)	no change	-3.25	-0.95	active
6	SYT5	no change	no change	0.5	-0.35	inactive
7	VNN1	no change	no change	-0.22	0.41	inactive
8	DEPDC5	no change	no change	-0.2	-0.08	inactive
9	PDCD6	no change	no change	-0.6	-0.03	inactive
10	XKR8	no change	no change	-0.08	2.08	inactive
11	ZIC4	no change	no change	0.2	-0.48	inactive
12	DNAJC5B	no change	no change	0.38	-0.94	inactive
13	OR10J3	no change	no change	-1.01	2.29	inactive
14	IQCF2	no change	no change	0.04	3.58	inactive
15	EGFL6	RV2 (reduced viability)	no change	-3.34	2.01	active
16	SGK2	no change	no change	0.92	1.52	inactive
17	CD4	no change	no change	-0.56	0.29	inactive
18	SLC46A3	no change	no change	-0.12	1.68	inactive
19	DAPK3	no change	no change	1.06	1.34	inactive
20	FAM181A	no change	no change	0.62	3.1	inactive
21	ACOT1	no change	no change	0.66	-0.93	inactive
22	SLC16A2	no change	no change	0.5	-0.64	inactive
23	INIP	no change	no change	0.52	0.64	inactive
24	TIAM1	no change	no change	0.06	-0.92	inactive
25	SLC24A5	no change	no change	-0.9	0.09	inactive
26	ZFAND5	no change	CA2 (caspase activation)	-2.52	10.4	active
27	BAK1	no change	no change	-0.7	-1.27	inactive
28	LY6S-AS1	no change	no change	-3.72	-0.83	inactive
29	FABP9	no change	no change	-1	5.11	inactive
30	DNASE1L2	no change	no change	0.83	1.9	inactive
31	PYGO2	no change	no change	-1.21	0.32	inactive
32	RGPD1	no change	no change	0.26	1.21	inactive
33	LHX3	no change	no change	-0.22	-0.58	inactive
34	TIMM44	no change	no change	-0.54	-1.13	inactive
35	ACER1	no change	no change	-1.32	1.74	inactive

The list goes on, starting with the last 2 of the part before.
no.	target	viability hit class	caspase hit class	viability robust z-score	caspase robust z-score	outcome
34	TIMM44	no change	no change	-0.54	-1.13	inactive
35	ACER1	no change	no change	-1.32	1.74	inactive
36	ZDHHC1	no change	no change	0.76	0.61	inactive
37	SERPINA7	no change	no change	0.6	0.38	inactive
38	USP24	no change	no change	-0.92	-0.53	inactive
39	WRAP53	no change	no change	0.01	0.4	inactive
40	ACKR3	no change	no change	0.57	1.91	inactive
41	GABBR1	no change	no change	0.63	0.9	inactive
42	NADK	no change	no change	0.33	-0.49	inactive
43	ZNF536	no change	no change	0.36	-0.09	inactive
44	PHYHIPL	no change	no change	-0.64	0.27	inactive
45	STIMATE	no change	no change	1.34	-0.97	inactive
46	EIF6	no change	no change	-0.98	-0.36	inactive
47	ARHGAP8	no change	no change	1.69	-0.02	inactive
48	LRRC8B	no change	no change	-0.77	1.12	inactive
49	YBX3	no change	no change	0.15	-0.4	inactive
50	POLD3	no change	no change	-0.52	-0.42	inactive
51	SLC13A2	no change	no change	-1.85	4.63	inactive
52	GPT	no change	no change	-1.53	1.9	inactive
53	TRAPPC3	no change	no change	1.1	-0.21	inactive
54	TRIM9	no change	no change	0.5	0.05	inactive
55	PRELID2	no change	no change	-0.48	0.3	inactive
56	CFP	no change	no change	-0.57	0.44	inactive
57	TAF4B	no change	no change	0.02	-1.09	inactive
